This is an account of results in the supplement of paper PMC10331698.

What all share (assay): level (log10 ratio to DMSO vehicle control); higher = higher biomarker level / cell amount than vehicle control
Compound in experiment [1]: C=CC(=O)OCC(F)(F)C(F)(F)C(F)(F)COC(=O)C=C [1H,1H,5H,5H-Perfluoro-1,5-pentanediol diacrylate]
As to conditions: 2200 nM; in DMSO. Here is the method: (§1)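 BioMAP Diversity Plus panel of 12 human primary cell co-culture systems (3C, 4H, LPS, SAg, BT, BF4T, BE3C, CASM3C, HDF3CGF, KF3CT, MyoF, Mphg). Compounds were added 1 h before stimulation and left for 24 h (MyoF 48 h; BT 72 h for soluble read-outs or 6 d for IgG). Biomarkers were read by ELISA, cytotoxicity by SRB, PBMC viability and proliferation by Alamar Blue. Each well value was divided by the mean of 8 DMSO control wells on the same plate and log10 transformed; duplicate blinded samples were tested at 4 concentrations.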

Compound in experiment [2]: OCCCC(F)(F)C(F)(F)C(F)(F)C(F)(F)C(F)(F)C(F)(F)C(F)(F)F [7:3 Fluorotelomer alcohol]
As to conditions: 2200 nM; in DMSO. As for the experimental part: as §1

Compound in experiment [3]: O=S(=O)(O)C(F)(F)C(F)(F)C(F)(F)C(F)(F)C(F)(F)C(F)(F)F [Perfluorohexanesulfonic acid]
As to conditions: 2200 nM; in DMSO. As for the experimental part: as §1

Compound in experiment [4]: O=C(O)C(F)(F)C(F)(F)C(F)(F)C(F)(F)C(F)(F)C(F)(F)C(F)(F)C(F)(F)C(F)(F)C(F)(F)C(F)(F)C(F)(F)C(F)(F)F [Perfluorotetradecanoic acid]
As to conditions: in DMSO. As for the experimental part: as §1

Compound in experiment [5]: C=CC(=O)OCCC(F)(F)C(F)(F)C(F)(F)C(F)(F)F [2-(Perfluorobutyl)ethyl acrylate]
Conditions: 2200 nM; in DMSO. As for the experimental part:
as §1

Compound in experiment [6]: O=C(Cl)C(F)(F)C(F)(F)C(F)(F)C(=O)Cl [Hexafluoroglutaryl chloride]
As to conditions: 2200 nM; in DMSO. As for the experimental part: as §1

Compound in experiment [7]: O=C(O)C=C(C(F)(F)F)C(F)(F)F [3,3-Bis(trifluoromethyl)-2-propenoic acid]
As to conditions: in DMSO. Here is the method:
as §1

Compound in experiment [8]: O=S(=O)(O)CCC(F)(F)C(F)(F)C(F)(F)C(F)(F)F [4:2 Fluorotelomer sulfonic acid]
Conditions: 2200 nM; in DMSO. Here is the method:
as §1

Compound in the next experiment: FC(F)(F)C(F)(F)C(F)(F)C(F)(F)C(F)(F)C(F)(F)I [Perfluoro-1-iodohexane]
As to conditions: in DMSO. Here is the method: as §1

Compound in experiment [9]: FC(F)(F)C(F)(C(F)(F)F)C(F)(F)C(F)(F)CC1CO1 [3-(Perfluoro-3-methylbutyl)-1,2-propenoxide]
As to conditions: in DMSO. Here is the method: as §1

Compound in a further experiment: OCC(F)(F)C(F)(F)C(F)(F)CO [Hexafluoroamylene glycol]
Conditions: 2200 nM; in DMSO. Here is the method: as §1

Compound in experiment [10]: FC(F)(I)C(F)(F)C(F)(F)C(F)(F)C(F)(F)C(F)(F)I [1,6-Diiodoperfluorohexane]
As to conditions: 2200 nM; in DMSO. Here is the method: as §1

Compound in experiment [11]: C=CC(=O)OCCC(F)(F)C(F)(F)C(F)(F)C(F)(F)C(F)(F)C(F)(F)C(F)(F)C(F)(F)F [8:2 Fluorotelomer acrylate]
As to conditions: 2200 nM; in DMSO. As for the experimental part: as §1

± gives the standard deviation of the averaged measurements. Most entries show no effect beyond the scatter of the controls.

With BF4T:MMP-1, the “level (log10)” value in experiment [1] was 0.0185 ± 0.0035; in [2], -0.0025 ± 0.0078; in experiment [3], 0.0135 ± 0.0064; in experiment [4] (740 nM), 0.006 ± 0.0071; in experiment [4] (2200 nM), -0.003 ± 0.0042; in experiment [5], 0.0055 ± 0.063. The “level (log10)” value in experiment [6] is -0.005 ± 0.0028; in [7] (2200 nM), 0.014 ± 0.018; in [7] (6700 nM), -0.006 ± 0.018; in experiment [7] (20000 nM) it was 0 ± 0.0042; in experiment [7] (60000 nM), 0.0125 ± 0.021; in [8], 0.001 ± 0.021. In addition, the “level (log10)” value was 0.008 ± 0.0014 with Perfluoro-1-iodohexane (2200 nM); 0.0045 ± 0.005 in the experiment with Perfluoro-1-iodohexane (6700 nM); 0.0035 ± 0.0035 in the experiment with Perfluoro-1-iodohexane (20000 nM); 0.009 ± 0.011 in the experiment with Perfluoro-1-iodohexane (60000 nM); 0.0045 ± 0.042 in experiment [9] (740 nM); -0.0115 ± 0.052 in experiment [9] (2200 nM). The “level (log10)” value with Hexafluoroamylene glycol is -0.0025 ± 0.013; in experiment [10] it was 0.0085 ± 0.015; in experiment [11], 0.0165 ± 0.015.
For CASM3C:PAI-I, the “level (log10)” value in experiment [1] was 0.0045 ± 0.0078; in experiment [2] it was -0.0065 ± 0.00071; in experiment [3], 0.004 ± 0.0099; in [4] (740 nM), 0.007 ± 0.0028; in experiment [4] (2200 nM), 0.012 ± 0.0085; in experiment [5] it was 0 ± 0.023. Further, the “level (log10)” value in [6] was -0.0085 ± 0.0021; in [7] (2200 nM), -0.006 ± 0.017; in [7] (6700 nM) it was -0.0115 ± 0.012; in experiment [7] (20000 nM) it was -0.019 ± 0.0057; in experiment [7] (60000 nM), -0.0145 ± 0.012; in experiment [8], -0.0085 ± 0.0021. Moreover, the “level (log10)” value with Perfluoro-1-iodohexane (2200 nM) was -0.0005 ± 0.00071; in the experiment with Perfluoro-1-iodohexane (6700 nM) it was -0.003 ± 0.0071; in the experiment with Perfluoro-1-iodohexane (20000 nM), -0.007 ± 0.0014; with Perfluoro-1-iodohexane (60000 nM) it was -0.003 ± 0.0028; in experiment [9] (740 nM), -0.006 ± 0.017; in experiment [9] (2200 nM), -0.004 ± 0.0057. Also, the entries for the “level (log10)” value (with Hexafluoroamylene glycol; in [10]; in experiment [11]) were -0.004 ± 0.014, -0.002 ± 0.0014 and -0.0045 ± 0.0078, respectively.
LPS:CD69: the “level (log10)” value was -0.0145 ± 0.074 in [1]; -0.025 ± 0.0099 in [2]; -0.009 ± 0.054 in experiment [3]; -0.007 ± 0.0042 in experiment [4] (740 nM); 0.001 ± 0.038 in [4] (2200 nM); -0.0085 ± 0.035 in experiment [5]. For the same test system, the “level (log10)” value in experiment [6] is 0.051 ± 0.013; in experiment [7] (2200 nM), -0.028 ± 0.042; in experiment [7] (6700 nM), -0.072 ± 0.02; in experiment [7] (20000 nM), -0.0565 ± 0.057; in [7] (60000 nM) it was -0.028 ± 0.09; in [8], -0.013 ± 0.021. Moreover, the “level (log10)” value with Perfluoro-1-iodohexane (2200 nM) was -0.0245 ± 0.012; in the experiment with Perfluoro-1-iodohexane (6700 nM), -0.0185 ± 0.0064; in the experiment with Perfluoro-1-iodohexane (20000 nM), -0.0025 ± 0.0035; in the experiment with Perfluoro-1-iodohexane (60000 nM) it was -0.032 ± 0.0099; in experiment [9] (740 nM) it was 0.027 ± 0.061; in [9] (2200 nM) it was -0.005 ± 0.034. For the same test system, the “level (log10)” value in the experiment with Hexafluoroamylene glycol was -0.0245 ± 0.056; in experiment [10] it was 0.018 ± 0.02; in [11], 0.057 ± 0.045.
As for MyoF:MMP-1, the “level (log10)” value in experiment [1] was 0.0495 ± 0.056; in experiment [2] it was 0.0205 ± 0.071; in experiment [3], 0.014 ± 0.055; in experiment [4] (740 nM) it was 0.0115 ± 0.005; in experiment [4] (2200 nM), 0.005 ± 0.0014; in experiment [5], -0.017 ± 0.018. In addition, the “level (log10)” value was -0.0455 ± 0.042 in experiment [6]; 0.012 ± 0.085 in experiment [7] (2200 nM); -0.0075 ± 0.0092 in [7] (6700 nM); -0.0445 ± 0.0078 in [7] (20000 nM); -0.0085 ± 0.093 in experiment [7] (60000 nM); -0.0185 ± 0.039 in [8]. Further, the “level (log10)” value in the experiment with Perfluoro-1-iodohexane (2200 nM) was 0.0025 ± 0.046; in the experiment with Perfluoro-1-iodohexane (6700 nM), 0.036 ± 0.0071; with Perfluoro-1-iodohexane (20000 nM), 0.451 ± 0.19; with Perfluoro-1-iodohexane (60000 nM), 0.661 ± 0.0028; in [9] (740 nM), -0.005 ± 0.0057; in experiment [9] (2200 nM), -0.009 ± 0.0099. Further, the “level (log10)” value is -0.017 ± 0.064 with Hexafluoroamylene glycol, 0.139 ± 0.1 in experiment [10] and 0.0325 ± 0.087 in experiment [11].
Take MyoF:Collagen IV: the “level (log10)” value is -0.017 ± 0.025 in [1]; -0.0135 ± 0.054 in experiment [2]; -0.0135 ± 0.0078 in experiment [3]; 0.006 ± 0.03 in experiment [4] (740 nM); -0.0005 ± 0.012 in experiment [4] (2200 nM); 0.0375 ± 0.067 in [5]. Moreover, the “level (log10)” value in [6] is -0.018 ± 0.055; in experiment [7] (2200 nM) it was -0.0225 ± 0.013; in [7] (6700 nM), -0.0215 ± 0.029; in [7] (20000 nM), -0.055 ± 0.025; in experiment [7] (60000 nM), -0.0345 ± 0.028; in [8], 0.0085 ± 0.019. The “level (log10)” value in the experiment with Perfluoro-1-iodohexane (2200 nM) was -0.0485 ± 0.035; in the experiment with Perfluoro-1-iodohexane (6700 nM), -0.033 ± 0.027; in the experiment with Perfluoro-1-iodohexane (20000 nM), -0.031 ± 0.028; with Perfluoro-1-iodohexane (60000 nM), 0.193 ± 0.013; in [9] (740 nM), 0.028 ± 0.0057; in experiment [9] (2200 nM) it was 0.0095 ± 0.0078. The “level (log10)” value with Hexafluoroamylene glycol was -0.0075 ± 0.033; in experiment [10], 0.0435 ± 0.028; in [11] it was -0.0135 ± 0.021.
Regarding 3C:CD142/Tissue Factor, the “level (log10)” value is -0.0595 ± 0.063 in experiment [1]; -0.0205 ± 0.0021 in experiment [2]; 0.006 ± 0.0057 in [3]; 0.0415 ± 0.046 in experiment [4] (740 nM); 0.0315 ± 0.061 in experiment [4] (2200 nM); -0.002 ± 0.05 in [5]. The “level (log10)” value in [6] was -0.0215 ± 0.037; in experiment [7] (2200 nM) it was 0.0565 ± 0.036; in experiment [7] (6700 nM) it was 0.0445 ± 0.018; in experiment [7] (20000 nM) it was -0.022 ± 0.037; in [7] (60000 nM), -0.138 ± 0.052; in experiment [8] it was 0.005 ± 0.02. The “level (log10)” value with Perfluoro-1-iodohexane (2200 nM) was -0.001 ± 0.027; with Perfluoro-1-iodohexane (6700 nM) it was 0.0025 ± 0.032; with Perfluoro-1-iodohexane (20000 nM), 0.0005 ± 0.013; with Perfluoro-1-iodohexane (60000 nM), 0.0185 ± 0.022; in experiment [9] (740 nM), 0.0115 ± 0.015; in experiment [9] (2200 nM), 0.001 ± 0.017. In addition, the “level (log10)” value was -0.0175 ± 0.057 in the experiment with Hexafluoroamylene glycol, -0.005 ± 0.05 in [10] and 0.0205 ± 0.029 in experiment [11].
